Assay results from publication PMC5538822, “RNA-dependent stabilization of SUV39H1 at constitutive heterochromatin”.
For at least one entry, the source does not settle the construct or the ends of the probe. At least one verdict was read from the data and is not stated in words by the source. Protein sequences can lack the tags named with them.

Biological target: T1, MBP-SUV39H1 42-106 (chromodomain) (Homo sapiens) (UniProt O43463)
T1 sequence (looked up): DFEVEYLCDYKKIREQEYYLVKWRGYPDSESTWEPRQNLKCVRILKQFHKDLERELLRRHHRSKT
Experiment: filter binding
Conditions: 20 mM Tris-HCl pH 7.4, 50 mM NaCl, 10% glycerol, ~4 U RNase inhibitor, room temperature 10 min; native gel 0.5X TBE at 25 C; recombinant protein; residues 42-106; protein details: MBP; label: 32P

AUAUGGGAACCACUGAUCC [sense 19mer ssRNA]: binds.
